Measurements published in PubChem BioAssay AID504467 (National Center for Advancing Translational Sciences (NCATS), 2011).
In all, about 330,000 compounds went through this assay and about 7,700 (2.3%) were called active. Inconclusive means that the source gave no clear call. Such entries were picked first, then a sample of the others. Calls follow the shape of the dose curve; as a rule, active = well fitted inhibition curve with a large enough effect; inconclusive = small, poorly fitted or top-dose-only effect, or effect the other way; inactive = flat fitted curve, though single readings scatter. A potency beside an inconclusive call is a rough fit, not a confirmed value.

Experiment: qHTS screen for small molecules that inhibit ELG1-dependent DNA repair in human embryonic kidney (HEK293T) cells expressing luciferase-tagged ELG1; also: nearly all actives have a fitted effect of over 55% in size
Conditions: HEK293T ELG1-luciferase reporter, luminescence, 16 h, DNA damage induced by 5-fluorouridine; series mostly up to 46.1 µM
Method in brief: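 Reporter activity after DNA damage by 5-fluorouridine is monitored. Compound-treated cells incubate 16 hr at 37 °C, then ONE-Glo is added for 30 min before luminescence reading.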
Potency is read from the fitted curve at half-maximal effect.

SMILES	Potency
Nc1nc(-c2ccc([N+](=O)[O-])cc2)cs1	inconclusive: 16.4 µM [activator, single point]
Cc1cc(OCC(=O)NC2CCCCC2)ccc1Cl	inconclusive: 20.6 µM [activator, partial curve]
CC1C/C(=N\NC(N)=S)c2cc(Cl)ccc2S1 (centres undefined)	inconclusive: 3.26 µM [inhibitor, single point]
C=CCC(CC(O)COCCC)C(=O)NNC(=S)Nc1ccccc1 (centres undefined)	inconclusive: 23.1 µM [activator, partial curve]
CCOC(=O)C1=C(C)OC(N)=C(C#N)C1c1cc2c(cc1Br)OCO2 (centres undefined)	inconclusive: 13 µM [activator, partial curve, poor fit]
COc1ccc(CCNC(=O)COc2coc(CN3c4ccccc4CC3C)cc2=O)cc1OC (centres undefined)	inconclusive: 13 µM [inhibitor, partial curve]
COC(=O)c1ccccc1NC(=O)Nc1ccc2c(c1)OCO2	inconclusive: 14.6 µM [activator, partial curve]
COc1cccc(CN(C)CC2CCCN(CCc3ccc(Cl)cc3)C2)c1OC (centres undefined)	inconclusive: 11.6 µM [inhibitor, partial curve, poor fit]
CN(C)c1ccc(/C=N/N(Cc2ccccc2)c2ccccc2)cc1	inconclusive: 9.2 µM [activator, partial curve, poor fit]
Cc1ccc(C(=O)N/C(=C/c2ccc(-c3cccc([N+](=O)[O-])c3)o2)C(=O)NC(C)C)cc1	inconclusive: 20.6 µM [inhibitor, single point]
O=c1[nH]nc(Cc2ccccn2)c2ccccc12	inconclusive: 29.1 µM [activator, partial curve, poor fit]
O=C(Nc1cccc(F)c1)C1CCCN(S(=O)(=O)c2cccc3cccnc23)C1 (centres undefined)	inactive
O=C(COn1nnc2ccc(S(=O)(=O)N3CCOCC3)cc21)Nc1c(F)c(F)c(F)c(F)c1F	inconclusive: 25.9 µM [inhibitor, partial curve, poor fit]
O=C(C[C@@H]1C/C=C/CC[C@@H](Cc2ccc(F)cc2)C(=O)O[C@@H](c2ccccc2)CNC1=O)NCCO	active: 7.3 µM
Cc1cccc(NCc2ccc([N+](=O)[O-])s2)c1	inconclusive: 18.3 µM [inhibitor, single point]
Cc1[nH]nc2c1C1(C(=O)N(Cc3ccc(Cl)cc3)c3ccccc31)C(C#N)=C(N)O2 (centres undefined)	inactive
O=C(COc1ccccc1C(=O)O)Nc1nc2ccc([N+](=O)[O-])cc2s1	inactive
CC(=O)c1cccc(NC(=O)c2noc3c2CCc2ccccc2-3)c1	inconclusive: 6.51 µM [activator, partial curve]
O=C1c2ccccc2-c2onc3c(Oc4ccccc4)cc(O)c1c23	inconclusive: 29.1 µM [activator, single point]
CC(C)N(C(=O)[C@H]1C[C@H](CC(=O)NCCc2ccccn2)C(=O)N2CCc3c([nH]c4cc(CCC(=O)N(C)C)ccc34)[C@]12C)C(C)C	inactive
CCCn1c(-c2ccccc2)cc(SC)c(C#N)c1=O	inactive
O=C(Nc1cccc(Cl)c1)C1CCCN(S(=O)(=O)c2ccc(F)cc2)C1 (centres undefined)	inconclusive: 16.4 µM [inhibitor, partial curve, poor fit]
O=C(Nc1cc(Cl)ccc1N1CCOCC1)c1ccc(=O)[nH]c1	inconclusive: 29.1 µM [inhibitor, single point]

Laid out differently: results already given
CC1C/C(=N\NC(N)=S)c2cc(Cl)ccc2S1 (centres undefined)
  Potency: inconclusive: 3.26 µM [inhibitor, single point]
C=CCC(CC(O)COCCC)C(=O)NNC(=S)Nc1ccccc1 (centres undefined)
  Potency: inconclusive: 23.1 µM [activator, partial curve]
CC(C)N(C(=O)[C@H]1C[C@H](CC(=O)NCCc2ccccn2)C(=O)N2CCc3c([nH]c4cc(CCC(=O)N(C)C)ccc34)[C@]12C)C(C)C
  Potency: inactive

Additional records follow:

SMILES	Potency
O=C(C#Cc1ccccc1)Nc1cccc(F)c1	inconclusive: 2.31 µM [activator, single point]
FC(F)(F)c1cnc(C(c2ccccn2)c2ncn[nH]2)c(Cl)c1 (centres undefined)	active: 25.9 µM
O=C(Cn1cncn1)N/N=C/c1cc([N+](=O)[O-])ccc1O	inconclusive: 29.1 µM [inhibitor, single point]
COc1ccc(NC(=O)CN2CCN(CC(=O)Nc3ccccc3F)CC2)c(OC)c1	inactive
NC(=S)N/N=C/c1coc2c(ccc3ccccc32)c1=O	inconclusive: 14.6 µM [activator, partial curve]
Cc1cc(C)cc(NC(=O)COC(=O)CCn2c(C)csc2=O)c1	inactive
O=C(COC(=O)c1ccc2c(c1)OCO2)Nc1cccc(F)c1	inactive
CCCCN(CCO)c1ncnc2sc(-c3ccccc3)cc12	inactive
CCOc1ccc(N(CC(=O)NCCSCc2ccc(C)cc2)S(C)(=O)=O)cc1	inactive
Cc1ccc(S(=O)(=O)N2CCN(CCc3ccncc3)CC2)cc1	inconclusive: 6.51 µM [inhibitor, single point]
O=C(N/N=C/c1c[nH]c2ccccc12)c1sc2ccccc2c1Cl	inconclusive: 18.4 µM [activator, partial curve]
CCC(CO)Oc1cc(NC(=O)c2cccc([N+](=O)[O-])c2)c2ncn(C(C)C)c2c1 (centres undefined)	inconclusive: 20.6 µM [inhibitor, partial curve]
Cc1cc(C)c(C(=O)CSc2nnc(N)s2)cc1C	inactive
O=C(Nc1ccccc1)c1cc(S(=O)(=O)Nc2cccnc2)ccc1Cl	inactive
COc1ccccc1NC(=O)Nc1sccc1-c1nc2ccccc2s1	inconclusive: 29.1 µM [inhibitor, single point]
COC(=O)C1CCN(C(=O)C2CCC(=O)N(CCCc3ccccc3)C2)CC1 (centres undefined)	inactive
COc1cccc(-c2nc3c(c(SCC(=O)N4CCOCC4)n2)Cc2c(CO)cnc(C)c2O3)c1	active: 4.61 µM
Cc1ccc(Nc2nc(-c3ccncc3)cs2)cc1	inconclusive: 4.11 µM [activator, partial curve]
O=C(NCCCN1CCCC1)[C@H](CSCc1ccccc1)N1Cc2ccccc2C1=O	inactive
COc1ccc(NC(=O)c2ccc3c(=O)n4c(nc3c2)CCCCC4)cc1	inconclusive: 32.6 µM [inhibitor, single point]
Cc1cccc(C)c1NC(=O)CN1CCN(CCCC(c2ccc(F)cc2)c2ccc(F)cc2)CC1	inconclusive: 6.31 µM [inhibitor, full curve, poor fit]
COc1cc(OC)c(/C=N/NC(=O)c2ccncc2)cc1Br	inactive
COc1ccc(-n2nc(C(=O)NCC(=O)N(C)Cc3ccccc3)c3ccccc3c2=O)cc1OC	inconclusive: 25.9 µM [inhibitor, single point]

SMILES	Potency
CCNC(=S)Nc1ccc(S(=O)(=O)Nc2cc(C)nc(C)n2)cc1	inactive
CC(CCc1ccccc1)NC(=O)/C=C/c1ccc(F)cc1 (centres undefined)	inconclusive: 0.517 µM [inhibitor, single point]
CCN(c1ccccc1)S(=O)(=O)c1nnc(NC(=O)c2ccccc2OC)s1	inconclusive: 6.51 µM [inhibitor, partial curve]
CCCCOc1ccc(NC(=O)c2cc(F)c(F)cc2Cl)cc1	inconclusive: 9.2 µM [activator, partial curve, poor fit]
O=c1c2sccc2nc(SCc2cc(=O)n3cc(Cl)ccc3n2)n1-c1ccc(F)cc1	inconclusive: 29.1 µM [inhibitor, single point]
O=C(COC(=O)CNC(=O)c1ccc(Br)cc1)Nc1nnc(-c2ccccc2)o1	inactive
CCc1cccc(C)c1NC(=O)CN1CCN(S(=O)(=O)c2ccc(C(C)(C)C)cc2)CC1	inconclusive: 15.8 µM [inhibitor, single point]
CCN(CC)S(=O)(=O)c1ccc(C)c(NC(=S)N2CCN(Cc3ccc4c(c3)OCO4)CC2)c1	inconclusive: 9.2 µM [inhibitor, partial curve]
Cn1c(=O)cc(SCC(=O)NCC2CCCO2)c2ccccc21 (centres undefined)	inconclusive: 1.46 µM [inhibitor, partial curve, poor fit]
O=C(NCC1CCCO1)C(c1cccs1)N(Cc1ccccc1)C(=O)c1ccc(-c2ccccc2)[nH]1 (centres undefined)	inconclusive: 29.1 µM [inhibitor, single point]
CCNc1nc(NCC)nc(N/N=C/c2ccc([N+](=O)[O-])o2)n1	inactive
CC1(C)Cc2c(c(N3CCCC3)nc3sc4c(N5CCNCC5)ncnc4c23)CO1	inconclusive: 0.206 µM [inhibitor, single point]
Clc1cc(Cl)cc(CN2CCSCC2)c1	inconclusive: 6.51 µM [inhibitor, single point]
Cc1ccc(C)c(C(=O)CSc2nnnn2C(C)C)c1	inconclusive: 23.1 µM [activator, partial curve]
CCn1cc(/C=N\NC(=O)c2c[nH]c3ccccc23)c(C)n1	inconclusive: 18.4 µM [activator, partial curve]
Cc1ccccc1-c1nc(CN2CCC(C(=O)NCCCN3CC(C)CC(C)C3)CC2)c(C)o1 (centres undefined)	inactive
CCOC(=O)NC1CCS(=O)(=O)C1 (centres undefined)	inconclusive: 1.16 µM [activator, single point]
CCOC(=O)c1ccc(S(=O)(=O)N2CCN(CCC#N)CC2)cc1	inactive
Cc1ccc(C2=N/C(=C/N3CCOCC3)C(=O)O2)cc1	inconclusive: 16.4 µM [activator, partial curve]
CC(Sc1nc(-c2ccccc2)cc(C(F)(F)F)n1)C(=O)N1CCC(C(N)=O)CC1 (centres undefined)	inconclusive: 18.4 µM [inhibitor, partial curve, poor fit]
O=C(O)c1cccc(CSc2nnc(Cc3ccccc3)o2)c1	inconclusive: 1.64 µM [activator, partial curve, poor fit]
CN(C)C1(CNC(=O)Nc2ccccc2)CCCCC1	inactive
COc1ccc(-c2csc(/C=C/c3ccc4c(c3)OCO4)n2)cc1OC	inconclusive: 23.1 µM [activator, partial curve, poor fit]
